Reference: publication PMC2702278
These are yes or no findings as the source states them, for the method shown. In cells and extracts the contact can be indirect. These calls come from enrichment with a bait or labelling near it, and not all partners need be listed.

By UniProt entry, the sequences of proteins in these tests, tags left out.
UniProt Q9UJX4: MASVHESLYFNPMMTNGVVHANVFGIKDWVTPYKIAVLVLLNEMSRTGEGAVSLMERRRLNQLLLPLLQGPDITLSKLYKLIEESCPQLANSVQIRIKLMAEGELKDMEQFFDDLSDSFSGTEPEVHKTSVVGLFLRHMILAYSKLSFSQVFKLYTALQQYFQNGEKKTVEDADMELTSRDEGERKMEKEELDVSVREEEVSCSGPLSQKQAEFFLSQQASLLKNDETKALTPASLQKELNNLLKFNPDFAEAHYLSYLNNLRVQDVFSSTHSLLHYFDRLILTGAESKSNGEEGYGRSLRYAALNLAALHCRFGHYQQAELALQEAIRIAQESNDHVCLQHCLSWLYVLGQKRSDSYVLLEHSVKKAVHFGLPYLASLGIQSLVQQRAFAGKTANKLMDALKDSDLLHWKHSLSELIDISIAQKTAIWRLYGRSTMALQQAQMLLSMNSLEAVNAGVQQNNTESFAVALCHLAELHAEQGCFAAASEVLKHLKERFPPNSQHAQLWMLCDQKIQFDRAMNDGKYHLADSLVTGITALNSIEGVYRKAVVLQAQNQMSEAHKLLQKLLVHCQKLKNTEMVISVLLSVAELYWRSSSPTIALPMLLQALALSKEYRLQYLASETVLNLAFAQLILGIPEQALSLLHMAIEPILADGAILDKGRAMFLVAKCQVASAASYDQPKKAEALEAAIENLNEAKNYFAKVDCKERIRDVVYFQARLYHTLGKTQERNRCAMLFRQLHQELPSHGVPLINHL
UniProt Q9Y2Y9: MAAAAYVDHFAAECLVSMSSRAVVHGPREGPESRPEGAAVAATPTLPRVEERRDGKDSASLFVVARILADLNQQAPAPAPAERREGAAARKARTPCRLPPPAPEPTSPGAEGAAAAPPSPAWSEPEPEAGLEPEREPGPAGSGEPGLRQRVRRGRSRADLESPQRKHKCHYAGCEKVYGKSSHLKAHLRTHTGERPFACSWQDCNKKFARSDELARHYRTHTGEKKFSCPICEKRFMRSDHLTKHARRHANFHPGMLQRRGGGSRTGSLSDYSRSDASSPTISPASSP
UniProt O43426: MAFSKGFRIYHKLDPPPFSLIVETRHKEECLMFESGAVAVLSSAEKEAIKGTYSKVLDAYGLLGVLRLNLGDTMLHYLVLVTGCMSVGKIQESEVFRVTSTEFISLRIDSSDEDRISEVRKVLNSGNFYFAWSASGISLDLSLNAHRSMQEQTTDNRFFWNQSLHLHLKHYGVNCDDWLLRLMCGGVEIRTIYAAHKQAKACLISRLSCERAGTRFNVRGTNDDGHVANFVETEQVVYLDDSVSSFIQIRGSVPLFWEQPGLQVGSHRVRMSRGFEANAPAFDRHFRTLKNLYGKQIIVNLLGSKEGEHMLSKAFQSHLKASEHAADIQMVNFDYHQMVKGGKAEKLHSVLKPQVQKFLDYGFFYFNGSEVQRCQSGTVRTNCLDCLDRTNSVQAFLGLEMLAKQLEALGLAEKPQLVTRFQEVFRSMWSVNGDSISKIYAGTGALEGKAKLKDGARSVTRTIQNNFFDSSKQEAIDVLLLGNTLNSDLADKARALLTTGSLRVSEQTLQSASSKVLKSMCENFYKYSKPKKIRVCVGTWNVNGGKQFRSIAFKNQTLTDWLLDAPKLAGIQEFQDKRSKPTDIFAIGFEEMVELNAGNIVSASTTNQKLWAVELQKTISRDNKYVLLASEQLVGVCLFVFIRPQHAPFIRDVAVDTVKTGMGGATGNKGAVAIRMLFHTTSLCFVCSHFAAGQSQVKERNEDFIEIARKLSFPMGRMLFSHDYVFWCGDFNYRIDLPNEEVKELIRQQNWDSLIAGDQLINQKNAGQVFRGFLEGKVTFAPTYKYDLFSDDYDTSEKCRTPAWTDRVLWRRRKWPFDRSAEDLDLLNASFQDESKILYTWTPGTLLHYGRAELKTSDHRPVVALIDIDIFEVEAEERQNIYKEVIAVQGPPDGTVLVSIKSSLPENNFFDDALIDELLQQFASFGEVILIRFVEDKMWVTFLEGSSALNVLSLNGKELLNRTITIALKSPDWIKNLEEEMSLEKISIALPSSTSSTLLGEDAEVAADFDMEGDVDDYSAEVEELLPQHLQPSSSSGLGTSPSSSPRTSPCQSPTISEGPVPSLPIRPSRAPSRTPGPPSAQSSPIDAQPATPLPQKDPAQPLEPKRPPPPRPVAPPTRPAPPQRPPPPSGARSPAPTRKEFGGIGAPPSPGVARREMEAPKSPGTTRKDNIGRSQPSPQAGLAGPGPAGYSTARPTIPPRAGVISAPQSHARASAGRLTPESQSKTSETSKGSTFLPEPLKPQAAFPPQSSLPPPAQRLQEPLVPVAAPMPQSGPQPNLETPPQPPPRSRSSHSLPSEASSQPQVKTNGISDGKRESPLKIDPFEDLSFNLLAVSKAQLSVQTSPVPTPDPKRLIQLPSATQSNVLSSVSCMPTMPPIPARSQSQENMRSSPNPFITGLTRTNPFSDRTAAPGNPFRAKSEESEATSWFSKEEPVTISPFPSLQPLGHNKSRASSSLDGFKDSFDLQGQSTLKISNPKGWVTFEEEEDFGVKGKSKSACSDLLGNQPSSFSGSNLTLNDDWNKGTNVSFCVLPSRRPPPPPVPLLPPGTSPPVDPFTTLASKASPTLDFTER

B1: Dystroglycan 1 (protein, UniProt Q14118 30-895)
chain: HWPSEPSEAVRDWENQLEASMHSVLSDLHEAVPTVVGIPDGTAVVGRSFRVTIPTDLIASSGDIIKVSAAGKEALPSWLHWDSQSHTLEGLPLDTDKGVHYISVSATRLGANGSHIPQTSSVFSIEVYPEDHSELQSVRTASPDPGEVVSSACAADEPVTVLTVILDADLTKMTPKQRIDLLHRMRSFSEVELHNMKLVPVVNNRLFDMSAFMAGPGNAKKVVENGALLSWKLGCSLNQNSVPDIHGVEAPAREGAMSAQLGYPVVGWHIANKKPPLPKRVRRQIHATPTPVTAIGPPTTAIQEPPSRIVPTPTSPAIAPPTETMAPPVRDPVPGKPTVTIRTRGAIIQTPTLGPIQPTRVSEAGTTVPGQIRPTMTIPGYVEPTAVATPPTTTTKKPRVSTPKPATPSTDSTTTTTRRPTKKPRTPRPVPRVTTKVSITRLETASPPTRIRTTTSGVPRGGEPNQRPELKNHIDRVDAWVGTYFEVKIPSDTFYDHEDTTTDKLKLTLKLREQQLVGEKSWVQFNSNSQLMYGLPDSSHVGKHEYFMHATDKGGLSAVDAFEIHVHRRPQGDRAPARFKAKFVGDPALVLNDIHKKIALVKKLAFAFGDRNCSTITLQNITRGSIVVEWTNNTLPLEPCPKEQIAGLSRRIAEDDGKPRPAFSNALEPDFKATSITVTGSGSCRHLQFIPVVPPRRVPSEAPPTEVPDRDPEKSSEDDVYLHTVIPAVVVAAILLIAGIIAMICYRKKRKGKLTLEDQATFIKKGVPIIFADELDDSKPPPSSSMPLILQEEKAPLPPPEYPNQSVPETTPLNQDTMGEYTPLRDEDPNAPPYQPPPPFTAPMEGKGSRPKNMTPYRSPPPYVPP
B2: SYDE1 (protein, UniProt Q6ZW31 1-735)
chain: MAEPLLRKTFSRLRGREKLPRKKSDAKERGHPAQRPEPSPPEPEPQAPEGSQAGAEGPSSPEASRSPARGAYLQSLEPSSRRWVLGGAKPAEDTSLGPGVPGTGEPAGEIWYNPIPEEDPRPPAPEPPGPQPGSAESEGLAPQGAAPASPPTKASRTKSPGPARRLSIKMKKLPELRRRLSLRGPRAGRERERAAPAGSVISRYHLDSSVGGPGPAAGPGGTRSPRAGYLSDGDSPERPAGPPSPTSFRPYEVGPAARAPPAALWGRLSLHLYGLGGLRPAPGATPRDLCCLLQVDGEARARTGPLRGGPDFLRLDHTFHLELEAARLLRALVLAWDPGVRRHRPCAQGTVLLPTVFRGCQAQQLAVRLEPQGLLYAKLTLSEQQEAPATAEPRVFGLPLPLLVERERPPGQVPLIIQKCVGQIERRGLRVVGLYRLCGSAAVKKELRDAFERDSAAVCLSEDLYPDINVITGILKDYLRELPTPLITQPLYKVVLEAMARDPPNRVPPTTEGTRGLLSCLPDVERATLTLLLDHLRLVSSFHAYNRMTPQNLAVCFGPVLLPARQAPTRPRARSSGPGLASAVDFKHHIEVLHYLLQSWPDPRLPRQSPDVAPYLRPKRQPPLHLPLADPEVVTRPRGRGGPESPPSNRYAGDWSVCGRDFLPCGRDFLSGPDYDHVTGSDSEDEDEEVGEPRVTGDFEDDFDAPFNPHLNLKDFDALILDLERELSKQINVCL
B3: CIZ1 (protein, UniProt Q9ULV3 1-898)
chain: MFSQQQQQQLQQQQQQLQQLQQQQLQQQQLQQQQLLQLQQLLQQSPPQAPLPMAVSRGLPPQQPQQPLLNLQGTNSASLLNGSMLQRALLLQQLQGLDQFAMPPATYDTAGLTMPTATLGNLRGYGMASPGLAAPSLTPPQLATPNLQQFFPQATRQSLLGPPPVGVPMNPSQFNLSGRNPQKQARTSSSTTPNRKDSSSQTMPVEDKSDPPEGSEEAAEPRMDTPEDQDLPPCPEDIAKEKRTPAPEPEPCEASELPAKRLRSSEEPTEKEPPGQLQVKAQPQARMTVPKQTQTPDLLPEALEAQVLPRFQPRVLQVQAQVQSQTQPRIPSTDTQVQPKLQKQAQTQTSPEHLVLQQKQVQPQLQQEAEPQKQVQPQVQPQAHSQGPRQVQLQQEAEPLKQVQPQVQPQAHSQPPRQVQLQLQKQVQTQTYPQVHTQAQPSVQPQEHPPAQVSVQPPEQTHEQPHTQPQVSLLAPEQTPVVVHVCGLEMPPDAVEAGGGMEKTLPEPVGTQVSMEEIQNESACGLDVGECENRAREMPGVWGAGGSLKVTILQSSDSRAFSTVPLTPVPRPSDSVSSTPAATSTPSKQALQFFCYICKASCSSQQEFQDHMSEPQHQQRLGEIQHMSQACLLSLLPVPRDVLETEDEEPPPRRWCNTCQLYYMGDLIQHRRTQDHKIAKQSLRPFCTVCNRYFKTPRKFVEHVKSQGHKDKAKELKSLEKEIAGQDEDHFITVDAVGCFEGDEEEEEDDEDEEEIEVEEELCKQVRSRDISREEWKGSETYSPNTAYGVDFLVPVMGYICRICHKFYHSNSGAQLSHCKSLGHFENLQKYKAAKNPSPTTRPVSRRCAINARNALTALFTSSGRPPSQPNTQDKTPSKVTARPSQPPLPRRSTRLKT
B4: SHCBP1 (protein, UniProt Q8NEM2 1-672)
chain: MADGSLTGGGLEAAAMAPERMGWAVEQELASLEKGLFQDEDSCSDCSYRDKPGSSLQSFMPEGKTFFPEIFQTNQLLFYERFRAYQDYILADCKASEVQEFTAEFLEKVLEPSGWRAVWHTNVFKVLVEITDVDFAALKAVVRLAEPYLCDSQVSTFTMECMKELLDLKEHRLPLQELWVVFDDSGVFDQTALAIEHVRFFYQNIWRSWDEEEEDEYDYFVRCVEPRLRLHYDILEDRVPSGLIVDYHNLLSQCEESYRKFLNLRSSLSNCNSDSEQENISMVEGLKLYSEMEQLKQKLKLIENPLLRYVFGYQKNSNIQAKGVRSSGQKITHVVSSTMMAGLLRSLLTDRLCQEPGEEEREIQFHSDPLSAINACFEGDTVIVCPGHYVVHGTFSIADSIELEGYGLPDDIVIEKRGKGDTFVDCTGADIKISGIKFVQHDAVEGILIVHRGKTTLENCVLQCETTGVTVRTSAEFLMKNSDLYGAKGAGIEIYPGSQCTLSDNGIHHCKEGILIKDFLDEHYDIPKISMVNNIIHNNEGYGVVLVKPTIFSDLQENAEDGTEENKALKIQTSGEPDVAERVDLEELIECATGKMELCARTDPSEQVEGNCEIVNELIAASTQKGQIKKKRLSELGITQADDNLMSQEMFVGIVGNQFKWNGKGSFGTFLF
B5: Dab2 (protein, UniProt P98082 1-770)
chain: MSNEVETSATNGQPDQQAAPKAPSKKEKKKGPEKTDEYLLARFKGDGVKYKAKLIGIDDVPDARGDKMSQDSMMKLKGMAAAGRSQGQHKQRIWVNISLSGIKIIDEKTGVIEHEHPVNKISFIARDVTDNRAFGYVCGGEGQHQFFAIKTGQQAEPLVVDLKDLFQVIYNVKKKEEEKKKIEEASKAVENGSEALMILDDQTNKLKSGVDQMDLFGDMSTPPDLNSPTESKDILLVDLNSEIDTNQNSLRENPFLTNGITSCSLPRPTPQASFLPENAFSANLNFFPTPNPDPFRDDPFTQPDQSTPSSFDSLKSPDQKKENSSSSSTPLSNGPLNGDVDYFGQQFDQISNRTGKQEAQAGPWPFSSSQTQPAVRTQNGVSEREQNGFSVKSSPNPFVGSPPKGLSIQNGVKQDLESSVQSSPHDSIAIIPPPQSTKPGRGRRTAKSSANDLLASDIFAPPVSEPSGQASPTGQPTALQPNPLDLFKTSAPAPVGPLVGLGGVTVTLPQAGPWNTASLVFNQSPSMAPGAMMGGQPSGFSQPVIFGTSPAVSGWNQPSPFAASTPPPVPVVWGPSASVAPNAWSTTSPLGNPFQSNIFPAPAVSTQPPSMHSSLLVTPPQPPPRAGPPKDISSDAFTALDPLGDKEIKDVKEMFKDFQLRQPPAVPARKGEQTSSGTLSAFASYFNSKVGIPQENADHDDFDANQLLNKINEPPKPAPRQVSLPVTKSTDNAFENPFFKDSFGSSQASVASSQPVSSEMYRDPFGNPFA
B6: MgcRacGAP (protein, UniProt Q9H0H5 1-632)
chain: MDTMMLNVRNLFEQLVRRVEILSEGNEVQFIQLAKDFEDFRKKWQRTDHELGKYKDLLMKAETERSALDVKLKHARNQVDVEIKRRQRAEADCEKLERQIQLIREMLMCDTSGSIQLSEEQKSALAFLNRGQPSSSNAGNKRLSTIDESGSILSDISFDKTDESLDWDSSLVKTFKLKKREKRRSTSRQFVDGPPGPVKKTRSIGSAVDQGNESIVAKTTVTVPNDGGPIEAVSTIETVPYWTRSRRKTGTLQPWNSDSTLNSRQLEPRTETDSVGTPQSNGGMRLHDFVSKTVIKPESCVPCGKRIKFGKLSLKCRDCRVVSHPECRDRCPLPCIPTLIGTPVKIGEGMLADFVSQTSPMIPSIVVHCVNEIEQRGLTETGLYRISGCDRTVKELKEKFLRVKTVPLLSKVDDIHAICSLLKDFLRNLKEPLLTFRLNRAFMEAAEITDEDNSIAAMYQAVGELPQANRDTLAFLMIHLQRVAQSPHTKMDVANLAKVFGPTIVAHAVPNPDPVTMLQDIKRQPKVVERLLSLPLEYWSQFMMVEQENIDPLHVIENSNAFSTPQTPDIKVSLLGPVTTPEHQLLKTPSSSSLSQRVRSTLTKNTPRFGSKSKSATNLGRQGNFFASPMLK
B7: Atherin (protein, UniProt Q6SPF0 1-538)
chain: MAGPPALPPPETAAAATTAAAASSSAASPHYQEWILDTIDSLRSRKARPDLERICRMVRRRHGPEPERTRAELEKLIQQRAVLRVSYKGSISYRNAARVQPPRRGATPPAPPRAPRGAPAAAAAAAPPPTPAPPPPPAPVAAAAPARAPRAAAAAATAPPSPGPAQPGPRAQRAAPLAAPPPAPAAPPAVAPPAGPRRAPPPAVAAREPPLPPPPQPPAPPQQQQPPPPQPQPPPEGGAVRAGGAARPVSLREVVRYLGGSGGAGGRLTRGRVQGLLEEEAAARGRLERTRLGALALPRGDRPGRAPPAASARPSRSKRGGEERVLEKEEEEDDDEDEDEEDDVSEGSEVPESDRPAGAQHHQLNGERGPQSAKERVKEWTPCGPHQGQDEGRGPAPGSGTRQVFSMAAMNKEGGTASVATGPDSPSPVPLPPGKPALPGADGTPFGCPPGRKEKPSDPVEWTVMDVVEYFTEAGFPEQATAFQEQEIDGKSLLLMQRTDVLTGLSIRLGPALKIYEHHIKVLQQGHFEDDDPDGFLG

Target: GST-fusion SH3C domain of Ruk/CIN85 (UniProt Q96B97)
Assay: affinity purification with mass spectrometry; GST-fusion SH3 domain (about 10 μg on 40 μl Glutathione Sepharose 4B) incubated 4 h at 4°C with HeLa lysate pre-cleared on GST beads; 20 mM Tris pH 7.5, 150 mM NaCl, 5 mM EDTA, 5% glycerol, 0.5% Triton X-100 (washes 0.1%); SDS-PAGE, in-gel trypsin digestion, LC-MS/MS; hits also found with GST alone removed; only the target purified

binding	Molecule
binds	APC5 (from UniProt Q9UJX4 1-755)
binds	KLF13 (from UniProt Q9Y2Y9 1-288)
binds	hnRNPK (from UniProt P61978 1-463)
binds	Synaptojanin 1 (from UniProt O43426 1-1573)
binds	B1
binds	B2
binds	B3
binds	B4
binds	B5
binds	B6
binds	B7
